This is one part of the list. Repeats are few or missing, and single values can be far off.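 Test system: a mixed pool of 41 HAP1 clones in which 61 cancer-associated proteins carry fluorescent tags inserted into introns, and each clone is identified from its image pattern. Read-outs are compared with DMSO-treated control wells. The BRD4 degrader dBET6 served as the positive control.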
Molecular target: XPO1 (intron 15 mScarlet tag, HAP1) (UniProt O14980)
Experiment: XPO1 fluorescence intensity change vs DMSO (log2 fold change); higher = more XPO1 protein
Conditions: 6 h

Protein sequences, listed by entry. Tags and fused reporters are not part of them.
UniProt O14980, whole entry: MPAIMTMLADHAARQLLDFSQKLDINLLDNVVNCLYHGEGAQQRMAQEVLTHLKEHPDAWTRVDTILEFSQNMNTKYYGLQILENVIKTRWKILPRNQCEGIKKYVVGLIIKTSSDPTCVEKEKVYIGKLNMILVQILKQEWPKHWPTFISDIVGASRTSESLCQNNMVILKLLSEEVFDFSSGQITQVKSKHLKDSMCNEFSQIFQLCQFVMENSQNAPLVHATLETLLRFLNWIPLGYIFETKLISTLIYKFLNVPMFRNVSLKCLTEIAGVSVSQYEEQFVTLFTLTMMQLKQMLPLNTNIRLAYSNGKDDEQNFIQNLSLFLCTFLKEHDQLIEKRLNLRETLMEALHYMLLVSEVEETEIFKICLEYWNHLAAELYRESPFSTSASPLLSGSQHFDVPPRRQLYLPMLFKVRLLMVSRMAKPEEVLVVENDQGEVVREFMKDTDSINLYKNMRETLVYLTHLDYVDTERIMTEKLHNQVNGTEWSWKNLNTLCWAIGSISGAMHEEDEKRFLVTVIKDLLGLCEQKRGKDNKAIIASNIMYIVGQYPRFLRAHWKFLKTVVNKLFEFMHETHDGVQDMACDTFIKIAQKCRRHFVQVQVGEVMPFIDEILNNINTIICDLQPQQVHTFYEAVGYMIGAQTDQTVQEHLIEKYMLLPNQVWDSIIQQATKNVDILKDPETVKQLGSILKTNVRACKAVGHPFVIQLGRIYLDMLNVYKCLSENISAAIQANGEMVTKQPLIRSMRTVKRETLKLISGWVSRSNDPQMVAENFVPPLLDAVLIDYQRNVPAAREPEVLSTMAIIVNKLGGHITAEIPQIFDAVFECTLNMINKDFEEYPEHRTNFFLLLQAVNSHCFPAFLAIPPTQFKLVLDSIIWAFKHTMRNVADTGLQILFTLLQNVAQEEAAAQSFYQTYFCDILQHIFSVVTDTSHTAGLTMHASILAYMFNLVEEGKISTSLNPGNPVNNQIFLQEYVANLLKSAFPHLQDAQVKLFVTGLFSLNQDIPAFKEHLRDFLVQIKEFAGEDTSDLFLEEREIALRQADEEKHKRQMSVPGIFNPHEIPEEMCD

SMILES | XPO1 fluorescence intensity change (log2)
O=c1c2ccccc2nc(CCl)n1-c1ccc(F)cc1 (10 µM) | -0.173
CN(C)c1ccc(C(=O)c2ccc(N(C)C)cc2)cc1 (10 µM) | -0.144
CCOc1ccc(-n2c(CCl)nc3ccccc3c2=O)cc1 (10 µM) | -0.0209
CC(=O)c1c(C)cc(C)c(CNc2ccc(C#N)c(Cl)c2)c1C (10 µM) | 0.0844
[O-][Cl+3]([O-])([O-])[O-].[O-][Cl+3]([O-])([O-])[O-].c1c[n+]2cn1CCCC[n+]1ccn(c1)CCCC2 (10 µM) | -0.0677
C[C@@H]1C[C@@H]([C@H](O)CC2CC(=O)NC(=O)C2)C(=O)[C@@H](C)C1 [cycloheximide] (10 µM) | -0.18

Molecular target: BRD4 (intron 10 mScarlet tag, HAP1) (UniProt O60885)
Experiment: BRD4 median nuclear fluorescence intensity change vs DMSO (log2 fold change); higher = more BRD4 protein
Conditions: 6 h

SMILES | BRD4 median nuclear fluorescence intensity change (log2)
O=c1c2ccccc2nc(CCl)n1-c1ccc(F)cc1 (10 µM) | 0.122
CCC1(c2ccc(N)cc2)CCC(=O)NC1=O (stereo unspecified) [aminoglutethimide] (20 µM) | -0.0584
COCC1(CO)C(=O)C2CCN1CC2 (stereo unspecified) [prima-1 met] (20 µM) | 0.00841
C[C@]12CC[C@H]3[C@@H](CCC4=CC(=O)CC[C@@]43C)[C@@H]1CC[C@@H]2O [testosterone] (10.00049246 µM) | 0.065
CN(C)c1ccc(C(=O)c2ccc(N(C)C)cc2)cc1 (10 µM) | 0.0113
CCN(C(C)=O)c1cccc(-c2ccnc3c(C#N)cnn23)c1 [zaleplon] (10.0001 µM) | 0.0582
CCOc1ccc(-n2c(CCl)nc3ccccc3c2=O)cc1 (10 µM) | -0.155
O=P1(N(CCCl)CCCl)NCCCO1 (stereo unspecified) [cyclophosphamide] (10 µM) | 0.0725
C=C1C[C@@H]2[C@H](CC[C@]3(C)C(=O)CC[C@@H]23)[C@@]2(C)C=CC(=O)C=C12 [exemestane] (20 µM) | -0.081
NCC(CC(=O)O)c1ccc(Cl)cc1 (stereo unspecified) [baclofen] (10 µM) | -0.0443
Cc1cccc([C@H](C)c2c[nH]cn2)c1C [dexmedetomidine] (10.0000196 µM) | 0.0285
O=[N+]([O-])O[C@H]1CO[C@H]2[C@@H]1OC[C@H]2O[N+](=O)[O-] [isosorbide dinitrate] (9.99947 µM) | 0.161
Cc1c(N)nc([C@H](CC(N)=O)NC[C@H](N)C(N)=O)nc1C(=O)N[C@H](C(=O)N[C@H](C)[C@@H](O)[C@H](C)C(=O)N[C@H](C(=O)NCCc1nc(-c2nc(C(=O)NCCC[S+](C)C)cs2)cs1)[C@@H](C)O)[C@@H](OC1OC(CO)C(O)C(O)C1OC1OC(CO)C(O)C(OC(N)=O)C1O)c1cnc[nH]1 (stereo partly specified) [bleomycin] (9.95632 µM) | -0.00141
CC[C@@H](CO)NC(=O)[C@@H]1C=C2c3cccc4[nH]cc(c34)C[C@H]2N(C)C1 [methylergonovine] (13.4 µM) | 0.0653
CC(=O)c1c(C)cc(C)c(CNc2ccc(C#N)c(Cl)c2)c1C (10 µM) | 0.0254
N[C@@H](Cc1ccc(N(CCCl)CCCl)cc1)C(=O)O [melphalan] (10 µM) | 0.0129
O=c1[nH]c2ccc(Cl)cc2c(N[C@@H]2CN3CCC2CC3)c1-c1nc2ccccc2[nH]1 [chir-124] (20 µM) | 0.0195
COC[C@@H](NC(C)=O)C(=O)NCc1ccccc1 [lacosamide] (10 µM) | 0.0398
CC(C)[C@]12O[C@H]1[C@@H]1O[C@]13[C@]1(O[C@H]1C[C@H]1C4=C(CC[C@@]13C)C(=O)OC4)[C@@H]2O [triptolide] (10 µM) | -0.0455
CN1C[C@H](C(=O)N[C@]2(C)O[C@@]3(O)[C@@H]4CCCN4C(=O)[C@H](Cc4ccccc4)N3C2=O)C[C@@H]2c3cccc4[nH]cc(c34)C[C@H]21 [dihydroergotamine] (9.9995338 µM) | 0.0781

Given as labelled records: part of the list above
Cc1cccc([C@H](C)c2c[nH]cn2)c1C [dexmedetomidine] (10.0000196 µM)
  BRD4 median nuclear fluorescence intensity change (log2): 0.0285
O=[N+]([O-])O[C@H]1CO[C@H]2[C@@H]1OC[C@H]2O[N+](=O)[O-] [isosorbide dinitrate] (9.99947 µM)
  BRD4 median nuclear fluorescence intensity change (log2): 0.161

The listing continues:

SMILES | BRD4 median nuclear fluorescence intensity change (log2)
COc1ccc2c(c1)[C@]13CCCC[C@@H]1[C@H](C2)N(C)CC3 [dextromethorphan] (10 µM) | 0.0873
[O-][Cl+3]([O-])([O-])[O-].[O-][Cl+3]([O-])([O-])[O-].c1c[n+]2cn1CCCC[n+]1ccn(c1)CCCC2 (10 µM) | 0.165
CCCC(C)(COC(N)=O)COC(=O)NC(C)C (stereo unspecified) [carisoprodol] (10 µM) | 0.0305
CC(C)(O)C(=O)Nc1ccc([N+](=O)[O-])c(C(F)(F)F)c1 [hydroxyflutamide] (10 µM) | 0.0177
NC(=O)C[S@@+]([O-])C(c1ccccc1)c1ccccc1 [armodafinil (modafinil)] (10 µM) | 0.0877
COc1cc2c(cc1OC)C1CC(=O)C(CC(C)C)CN1CC2 (stereo unspecified) [tetrabenazine] (10 µM) | -0.0129
Cn1c(CCCC(=O)O)nc2cc(N(CCCl)CCCl)ccc21 [bendamustine] (20 µM) | 0.0445
C[C@]12Cc3c[nH]nc3C[C@@H]1CC[C@@H]1[C@@H]2CC[C@@]2(C)[C@H]1CC[C@]2(C)O [stanozolol] (10 µM) | -0.0554
C[C@]12CC[C@H]3[C@@H](CC[C@@]45O[C@@H]4C(O)=C(C#N)C[C@]35C)[C@@H]1CC[C@@H]2O [trilostane] (9.99988 µM) | 0.00913
C[C@]12C=CC(=O)C=C1CC[C@@H]1[C@@H]2CC[C@]2(C)OC(=O)CC[C@@H]12 [testolactone] (10 µM) | 0.00124
N.N.[Cl][Pt][Cl] [cisplatin] (20 µM) | 0.196
CC(O)(CS(=O)(=O)c1ccc(F)cc1)C(=O)Nc1ccc(C#N)c(C(F)(F)F)c1 (stereo unspecified) [bicalutamide] (20 µM) | 0.0457
O=P1(NCCCl)OCCCN1CCCl (stereo unspecified) [ifosfamide] (20 µM) | 0.0162
CN(C)C(=O)Oc1ccc[n+](C)c1 [pyridostigmine  bromide] (10 µM) | 0.0758
CCC(C)C(C)(COC(N)=O)COC(N)=O (stereo unspecified) [mebutamate] (10 µM) | 0.0245
CC[C@@H](C(N)=O)N1CCCC1=O [levetiracetam] (10 µM) | -0.0276
C[C@]12O[C@H](C[C@]1(O)CO)n1c3ccccc3c3c4c(c5c6ccccc6n2c5c31)CNC4=O [lestaurtinib] (2 µM) | -0.0489
C[C@@H]1C[C@@H]([C@H](O)CC2CC(=O)NC(=O)C2)C(=O)[C@@H](C)C1 [cycloheximide] (10 µM) | -0.231
N[C@@H]1C[C@H]1c1ccccc1.N[C@H]1C[C@@H]1c1ccccc1 [tranylcypromine] (10.0004 µM) | 0.0423
O=C(O)CCCc1ccc(N(CCCl)CCCl)cc1 [chlorambucil] (10.66 µM) | 0.0304
